In the supplement of paper PMC12819154, “High-throughput peptide-centric local stability assay extends protein–ligand identification to membrane proteins, tissues and bacteria” (Nature Structural & Molecular Biology, 2025):
The list shows a part of the results. Most values lie at the level of the controls, where differences are scatter.

Chains of the proteins cited; added tags and fusions are not shown. Lines headed by an entry give the natural chain unless they say otherwise; changes in a name come on top.
UniProt Q9DD19: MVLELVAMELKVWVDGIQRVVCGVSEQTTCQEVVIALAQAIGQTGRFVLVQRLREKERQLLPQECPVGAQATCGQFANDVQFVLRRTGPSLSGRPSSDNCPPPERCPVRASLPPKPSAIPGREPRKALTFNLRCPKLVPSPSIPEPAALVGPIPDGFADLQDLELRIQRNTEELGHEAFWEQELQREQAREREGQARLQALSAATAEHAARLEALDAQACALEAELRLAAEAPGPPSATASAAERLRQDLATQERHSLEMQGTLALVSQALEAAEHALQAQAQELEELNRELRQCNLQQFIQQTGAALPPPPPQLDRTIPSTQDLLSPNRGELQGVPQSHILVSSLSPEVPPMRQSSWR
UniProt Q9DCV3: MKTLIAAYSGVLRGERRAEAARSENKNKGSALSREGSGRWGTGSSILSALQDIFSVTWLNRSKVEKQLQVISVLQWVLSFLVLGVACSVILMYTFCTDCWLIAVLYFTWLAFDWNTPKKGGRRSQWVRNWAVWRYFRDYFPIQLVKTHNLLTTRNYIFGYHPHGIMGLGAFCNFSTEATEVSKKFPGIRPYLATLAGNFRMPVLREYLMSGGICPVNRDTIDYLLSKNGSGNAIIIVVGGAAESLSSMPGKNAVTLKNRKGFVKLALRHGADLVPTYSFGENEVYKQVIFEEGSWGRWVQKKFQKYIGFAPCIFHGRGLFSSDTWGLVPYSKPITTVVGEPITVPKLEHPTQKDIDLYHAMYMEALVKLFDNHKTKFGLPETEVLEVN
UniProt Q9EQH2: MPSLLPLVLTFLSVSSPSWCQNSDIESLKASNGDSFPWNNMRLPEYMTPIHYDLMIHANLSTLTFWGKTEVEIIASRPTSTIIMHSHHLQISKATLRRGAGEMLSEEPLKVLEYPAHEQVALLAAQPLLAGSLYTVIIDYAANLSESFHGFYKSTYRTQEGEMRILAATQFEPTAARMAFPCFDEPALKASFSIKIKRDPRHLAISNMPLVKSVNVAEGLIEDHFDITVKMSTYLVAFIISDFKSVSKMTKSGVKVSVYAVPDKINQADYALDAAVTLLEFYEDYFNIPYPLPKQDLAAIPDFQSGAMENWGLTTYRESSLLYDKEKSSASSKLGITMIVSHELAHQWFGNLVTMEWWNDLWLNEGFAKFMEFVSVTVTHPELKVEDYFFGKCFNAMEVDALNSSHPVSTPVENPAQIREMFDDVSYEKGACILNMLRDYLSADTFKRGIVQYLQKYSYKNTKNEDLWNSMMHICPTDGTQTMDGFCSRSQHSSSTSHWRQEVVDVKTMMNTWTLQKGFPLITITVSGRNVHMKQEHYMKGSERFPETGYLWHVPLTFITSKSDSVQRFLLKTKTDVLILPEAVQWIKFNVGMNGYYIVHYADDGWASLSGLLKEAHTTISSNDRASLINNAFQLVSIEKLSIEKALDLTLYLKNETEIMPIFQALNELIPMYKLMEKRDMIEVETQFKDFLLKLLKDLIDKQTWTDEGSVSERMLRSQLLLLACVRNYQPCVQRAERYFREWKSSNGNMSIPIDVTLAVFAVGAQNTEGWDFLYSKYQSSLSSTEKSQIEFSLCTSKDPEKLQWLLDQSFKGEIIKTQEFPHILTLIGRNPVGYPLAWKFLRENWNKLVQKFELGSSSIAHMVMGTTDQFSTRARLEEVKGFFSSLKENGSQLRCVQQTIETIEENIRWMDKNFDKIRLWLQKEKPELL
UniProt Q9DB42: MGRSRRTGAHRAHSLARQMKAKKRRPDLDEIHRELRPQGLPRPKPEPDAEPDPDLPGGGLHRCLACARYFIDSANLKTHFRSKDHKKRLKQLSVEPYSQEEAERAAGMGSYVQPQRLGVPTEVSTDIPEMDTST
UniProt Q9DBZ9, whole entry: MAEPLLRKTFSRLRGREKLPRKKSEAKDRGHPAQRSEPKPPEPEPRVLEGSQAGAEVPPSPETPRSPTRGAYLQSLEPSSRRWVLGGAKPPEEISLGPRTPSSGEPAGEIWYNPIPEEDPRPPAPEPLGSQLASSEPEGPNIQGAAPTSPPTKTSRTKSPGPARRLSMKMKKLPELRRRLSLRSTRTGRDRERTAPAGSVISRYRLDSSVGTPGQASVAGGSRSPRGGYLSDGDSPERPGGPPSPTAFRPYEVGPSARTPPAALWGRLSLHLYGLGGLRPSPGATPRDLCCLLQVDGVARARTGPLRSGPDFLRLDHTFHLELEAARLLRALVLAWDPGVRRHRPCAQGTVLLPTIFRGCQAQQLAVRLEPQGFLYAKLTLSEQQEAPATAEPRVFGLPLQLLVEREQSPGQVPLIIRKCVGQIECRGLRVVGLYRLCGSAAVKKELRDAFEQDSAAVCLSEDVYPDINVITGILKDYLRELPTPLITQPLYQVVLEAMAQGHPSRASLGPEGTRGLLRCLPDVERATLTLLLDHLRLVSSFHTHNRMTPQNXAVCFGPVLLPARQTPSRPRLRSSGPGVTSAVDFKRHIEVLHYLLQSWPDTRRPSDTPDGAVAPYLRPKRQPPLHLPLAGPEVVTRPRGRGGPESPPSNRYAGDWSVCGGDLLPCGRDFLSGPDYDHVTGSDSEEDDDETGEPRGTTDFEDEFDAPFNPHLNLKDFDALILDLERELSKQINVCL
UniProt Q9DCB8: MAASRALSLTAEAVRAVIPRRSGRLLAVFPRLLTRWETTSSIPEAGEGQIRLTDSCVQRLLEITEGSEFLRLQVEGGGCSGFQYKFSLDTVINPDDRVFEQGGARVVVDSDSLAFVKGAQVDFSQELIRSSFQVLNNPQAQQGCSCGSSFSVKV
UniProt Q9EQC5: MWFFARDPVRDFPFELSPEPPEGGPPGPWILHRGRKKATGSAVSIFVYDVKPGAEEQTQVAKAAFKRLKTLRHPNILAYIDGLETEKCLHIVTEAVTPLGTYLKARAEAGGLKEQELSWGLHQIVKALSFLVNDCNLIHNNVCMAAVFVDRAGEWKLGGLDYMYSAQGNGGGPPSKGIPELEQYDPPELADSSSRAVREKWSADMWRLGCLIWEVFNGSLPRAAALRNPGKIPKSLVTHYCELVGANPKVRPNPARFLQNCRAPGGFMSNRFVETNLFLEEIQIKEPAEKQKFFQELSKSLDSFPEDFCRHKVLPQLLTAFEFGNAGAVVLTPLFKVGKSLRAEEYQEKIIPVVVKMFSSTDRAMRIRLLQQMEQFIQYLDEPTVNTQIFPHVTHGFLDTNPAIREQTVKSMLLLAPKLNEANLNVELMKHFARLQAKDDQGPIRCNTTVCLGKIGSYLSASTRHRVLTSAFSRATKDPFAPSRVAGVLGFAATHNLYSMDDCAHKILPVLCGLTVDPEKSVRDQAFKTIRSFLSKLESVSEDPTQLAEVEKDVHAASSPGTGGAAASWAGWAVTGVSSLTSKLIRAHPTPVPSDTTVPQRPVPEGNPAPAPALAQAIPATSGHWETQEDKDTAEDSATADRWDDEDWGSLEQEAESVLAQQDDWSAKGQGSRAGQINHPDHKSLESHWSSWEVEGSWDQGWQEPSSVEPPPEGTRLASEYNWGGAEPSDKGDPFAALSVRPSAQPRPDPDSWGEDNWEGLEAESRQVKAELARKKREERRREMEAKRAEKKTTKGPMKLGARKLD
UniProt Q9ERE7: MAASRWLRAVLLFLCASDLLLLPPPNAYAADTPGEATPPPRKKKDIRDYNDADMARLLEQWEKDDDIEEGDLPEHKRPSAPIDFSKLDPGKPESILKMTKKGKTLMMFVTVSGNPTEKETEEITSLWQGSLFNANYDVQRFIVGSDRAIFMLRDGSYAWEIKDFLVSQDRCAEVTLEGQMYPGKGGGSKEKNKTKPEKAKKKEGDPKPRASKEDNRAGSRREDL
UniProt Q9DB76: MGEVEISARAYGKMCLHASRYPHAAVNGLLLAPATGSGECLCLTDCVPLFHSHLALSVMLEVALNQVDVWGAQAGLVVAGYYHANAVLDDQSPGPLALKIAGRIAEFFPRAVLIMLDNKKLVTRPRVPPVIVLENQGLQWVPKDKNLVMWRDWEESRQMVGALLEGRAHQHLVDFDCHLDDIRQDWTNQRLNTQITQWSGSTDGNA
UniProt Q9DCI9, whole entry: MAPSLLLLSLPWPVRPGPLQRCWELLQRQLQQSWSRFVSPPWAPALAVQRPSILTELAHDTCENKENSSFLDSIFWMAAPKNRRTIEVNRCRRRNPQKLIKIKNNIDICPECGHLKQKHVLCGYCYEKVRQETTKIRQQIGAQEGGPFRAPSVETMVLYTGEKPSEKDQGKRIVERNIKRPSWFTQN
UniProt Q9DCS9: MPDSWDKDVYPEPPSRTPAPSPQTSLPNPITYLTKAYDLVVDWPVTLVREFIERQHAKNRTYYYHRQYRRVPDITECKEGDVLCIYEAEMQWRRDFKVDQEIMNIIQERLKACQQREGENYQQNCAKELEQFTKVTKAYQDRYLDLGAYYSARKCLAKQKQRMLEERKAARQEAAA

Compound: CN[C@@H]1C[C@H]2O[C@@](C)([C@@H]1OC)n1c3ccccc3c3c4c(c5c6ccccc6n2c5c31)C(=O)NC4 [staurosporine]
Assay: log2 fold change of tryptic peptide abundance, ligand vs vehicle (limited proteolysis) (log2 ratio); higher = more trypsin-susceptible (destabilized)
Settings: ligand concentration: 20 uM; sample: mouse liver crude lysate; replicate design: treated separately

Target	log2 fold change
UniProt Q9DD19 (peptide sequence: LQALSAATAEHAAR, peptide start residue: 198)	0.0805
UniProt Q9DCV3 (peptide sequence: THNLLTTR, peptide start residue: 147)	0.206
UniProt Q9EQH2 (peptide sequence: SQHSSSTSHWR, peptide start residue: 490)	-0.0728
UniProt Q9DB42 (peptide sequence: RRPDLDEIHR, peptide start residue: 24)	0.489
UniProt Q9DBZ9 (peptide sequence: RQPPLHLPLAGPEVVTRPR, peptide start residue: 622)	0.185
UniProt Q9DCB8 (peptide sequence: VFEQGGAR, peptide start residue: 98)	-0.134
UniProt Q9EQC5 (peptide sequence: APGGFMSNR, peptide start residue: 263)	0.207
UniProt Q9ERE7 (peptide sequence: LLEQWEKDDDIEEGDLPEHK, peptide start residue: 57)	-0.0683
UniProt Q9DB76 (peptide sequence: MCLHASR, peptide start residue: 14)	0.325
UniProt Q9DCI9 (peptide sequence: IKNNIDICPECGHLK, peptide start residue: 102)	0.256
UniProt Q9DCS9 (peptide sequence: PDSWDKDVYPEPPSR, peptide start residue: 2)	-0.119
